{"source": "PubChem BioAssay AID504764 (Drosophila RNAi Screening Center, 2011)", "test": "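Genes whose knock-down alters Notch-dependent transcription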 (primary screen)", "system": "Drosophila Kc167 cells", "reagents": "long dsRNA against Drosophila genes", "time to read-out": "about 5 days (4 days dsRNA, then 24 h after transfection)", "challenge": "transfection of constitutively active membrane-tethered Notch lacking the extracellular domain, read 24 h later", "measurement": "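Firefly luciferase from an E(spl)m3 reporter with active Notch, plus control-promoter and uninduced reporter wells for normalisation; unnormalised counts, duplicate wells a and b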", "direction": "induced reporter light, run 1, well a and induced reporter light, run 1, well b: higher = more light from the Notch target reporter with active Notch; control promoter light, run 1, well a and control promoter light, run 1, well b: higher = more light from the viral control promoter (cell number, transfection, viability); uninduced reporter light, run 1, well a: higher = more light from the Notch target reporter without active Notch", "rule for the call": "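Wells with low control signal or poorly matching duplicates excluded; duplicates averaged; per source plate, z beyond ±2 for induced/control log2 ratio or beyond ±1.8 for induced/uninduced marks a hit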", "calls": "active = modifier hit (raised or lowered Notch signal); inactive = not a hit", "note": "The deposit covers about 22,000 reagents; this is a random part of those that have a named target and a result. Over the whole deposit, 403 (1.9%) were called active. 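Unnormalised raw counts per well; ratio z-scores behind the hit calls and whether each hit raises or lowers signal are not deposited.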 Names joined by + are all predicted targets of the reagent. Reagent sequences are not shown. The record does not give: the amount of reagent."}
{"Gene": "CG11674 (GeneID 32374)", "amplicon": "DRSC19414", "induced reporter light, run 1, well a": 1.93e5, "induced reporter light, run 1, well b": 1.46e5, "control promoter light, run 1, well a": 2.21e5, "control promoter light, run 1, well b": 1.77e5, "uninduced reporter light, run 1, well a": 11115, "Outcome": "inactive"}
{"Gene": "CG11263 (GeneID 39472)", "amplicon": "DRSC09832", "induced reporter light, run 1, well a": 1.43e5, "induced reporter light, run 1, well b": 1.08e5, "control promoter light, run 1, well a": 2.16e5, "control promoter light, run 1, well b": 1.30e5, "uninduced reporter light, run 1, well a": 6895, "Outcome": "inactive"}
{"Gene": "LysB (GeneID 38125)", "amplicon": "DRSC08673", "induced reporter light, run 1, well a": 99730, "induced reporter light, run 1, well b": 1.12e5, "control promoter light, run 1, well a": 2.01e5, "control promoter light, run 1, well b": 1.26e5, "uninduced reporter light, run 1, well a": 5180, "Outcome": "inactive"}
{"Gene": "Abl (GeneID 45821)", "amplicon": "DRSC09661", "induced reporter light, run 1, well a": 2.72e5, "induced reporter light, run 1, well b": 2.01e5, "control promoter light, run 1, well a": 2.58e5, "control promoter light, run 1, well b": 2.43e5, "uninduced reporter light, run 1, well a": 8845, "Outcome": "inactive"}
{"Gene": "Kots (GeneID 41702)", "amplicon": "DRSC16581", "induced reporter light, run 1, well a": 1.13e5, "induced reporter light, run 1, well b": 1.29e5, "control promoter light, run 1, well a": 87485, "control promoter light, run 1, well b": 88360, "uninduced reporter light, run 1, well a": 8575, "Outcome": "inactive"}
{"Gene": "pes (GeneID 34087)", "amplicon": "DRSC03033", "induced reporter light, run 1, well a": 1.51e5, "induced reporter light, run 1, well b": 1.76e5, "control promoter light, run 1, well a": 1.01e5, "control promoter light, run 1, well b": 1.19e5, "uninduced reporter light, run 1, well a": 21150, "Outcome": "inactive"}
{"Gene": "Dnah3 (GeneID 38586)", "amplicon": "DRSC08130", "induced reporter light, run 1, well a": 1.99e5, "induced reporter light, run 1, well b": 2.44e5, "control promoter light, run 1, well a": 2.05e5, "control promoter light, run 1, well b": 1.65e5, "uninduced reporter light, run 1, well a": 15155, "Outcome": "inactive"}
{"Gene": "Dnah3 (GeneID 38586)", "amplicon": "DRSC08513", "induced reporter light, run 1, well a": 1.81e5, "induced reporter light, run 1, well b": 1.34e5, "control promoter light, run 1, well a": 1.31e5, "control promoter light, run 1, well b": 1.64e5, "uninduced reporter light, run 1, well a": 7000, "Outcome": "inactive"}
{"Gene": "Vps52 (GeneID 33774)", "amplicon": "DRSC03050", "induced reporter light, run 1, well a": 2.28e5, "induced reporter light, run 1, well b": 1.80e5, "control promoter light, run 1, well a": 1.85e5, "control promoter light, run 1, well b": 2.05e5, "uninduced reporter light, run 1, well a": 15425, "Outcome": "inactive"}
{"Gene": "Or65b (GeneID 318012)", "amplicon": "DRSC08809", "induced reporter light, run 1, well a": 2.24e5, "induced reporter light, run 1, well b": 2.27e5, "control promoter light, run 1, well a": 2.76e5, "control promoter light, run 1, well b": 2.95e5, "uninduced reporter light, run 1, well a": 15200, "Outcome": "inactive"}
{"Gene": "Pka-C1 (GeneID 34284)", "amplicon": "DRSC03399", "induced reporter light, run 1, well a": 2.11e5, "induced reporter light, run 1, well b": 2.07e5, "control promoter light, run 1, well a": 1.70e5, "control promoter light, run 1, well b": 1.78e5, "uninduced reporter light, run 1, well a": 16605, "Outcome": "inactive"}
{"Gene": "CG14864 (GeneID 41846)", "amplicon": "DRSC14987", "induced reporter light, run 1, well a": 2.31e5, "induced reporter light, run 1, well b": 2.02e5, "control promoter light, run 1, well a": 2.03e5, "control promoter light, run 1, well b": 1.80e5, "uninduced reporter light, run 1, well a": 20028, "Outcome": "inactive"}
{"Gene": "CG31827 + CG18478", "amplicon": "DRSC01958", "induced reporter light, run 1, well a": 1.17e5, "induced reporter light, run 1, well b": 1.45e5, "control promoter light, run 1, well a": 1.50e5, "control promoter light, run 1, well b": 1.90e5, "uninduced reporter light, run 1, well a": 9615, "Outcome": "inactive"}
{"Gene": "CG14995 (GeneID 38487)", "amplicon": "DRSC08452", "induced reporter light, run 1, well a": 14620, "induced reporter light, run 1, well b": 17335, "control promoter light, run 1, well a": 14470, "control promoter light, run 1, well b": 7730, "uninduced reporter light, run 1, well a": 5995, "Outcome": "inactive"}
{"Gene": "Mlc-c (GeneID 31474)", "amplicon": "DRSC18683", "induced reporter light, run 1, well a": 1.52e5, "induced reporter light, run 1, well b": 1.41e5, "control promoter light, run 1, well a": 2.01e5, "control promoter light, run 1, well b": 1.66e5, "uninduced reporter light, run 1, well a": 10720, "Outcome": "inactive"}
{"Gene": "CG13775 (GeneID 33975)", "amplicon": "DRSC02279", "induced reporter light, run 1, well a": 1.31e5, "induced reporter light, run 1, well b": 1.12e5, "control promoter light, run 1, well a": 1.72e5, "control promoter light, run 1, well b": 1.85e5, "uninduced reporter light, run 1, well a": 8332, "Outcome": "inactive"}
{"Gene": "Cpr49Ag (GeneID 36353)", "amplicon": "DRSC07203", "induced reporter light, run 1, well a": 1.09e5, "induced reporter light, run 1, well b": 1.14e5, "control promoter light, run 1, well a": 1.58e5, "control promoter light, run 1, well b": 1.09e5, "uninduced reporter light, run 1, well a": 9550, "Outcome": "inactive"}
{"Gene": "qua (GeneID 35058)", "amplicon": "DRSC03598", "induced reporter light, run 1, well a": 1.23e5, "induced reporter light, run 1, well b": 1.47e5, "control promoter light, run 1, well a": 1.41e5, "control promoter light, run 1, well b": 1.73e5, "uninduced reporter light, run 1, well a": 9790, "Outcome": "inactive"}
